The other results are listed elsewhere or left out.
The targets below were run with Cc1cc(ccc1-c1ccccc1)C(=O)N1CCCN(CC1)C(=O)CCl [compound 10] (assay: probe-labelled cysteine peptide fold change vs DMSO (competition) (log2 fold change); higher = less target engagement (more negative = stronger competition)). Conditions: 50 µM; THP-1; incubation time: 4 h.
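Also: competitive profiling in live THP-1 cells: cysteine peptides tagged with an iodoacetamide desthiobiotin (IA-DTB) probe, intensity after compound treatment relative to DMSO-treated cells.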

Amino acid sequences for entries named in this document (tags omitted). A change or cut given only in a name is not applied to a line headed by its entry.
UniProt O95630, whole entry, looked up: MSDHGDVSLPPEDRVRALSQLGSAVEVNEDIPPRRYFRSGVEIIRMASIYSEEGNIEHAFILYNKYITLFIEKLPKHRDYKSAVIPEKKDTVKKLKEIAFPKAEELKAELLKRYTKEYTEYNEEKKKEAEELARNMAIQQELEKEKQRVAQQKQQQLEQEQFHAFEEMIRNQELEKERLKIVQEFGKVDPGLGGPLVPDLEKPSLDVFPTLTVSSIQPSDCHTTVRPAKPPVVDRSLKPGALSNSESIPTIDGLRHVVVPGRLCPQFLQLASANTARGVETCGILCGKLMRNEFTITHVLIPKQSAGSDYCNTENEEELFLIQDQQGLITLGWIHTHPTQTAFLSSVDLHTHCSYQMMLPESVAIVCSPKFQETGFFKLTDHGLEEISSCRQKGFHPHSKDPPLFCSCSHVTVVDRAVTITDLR
UniProt O94804: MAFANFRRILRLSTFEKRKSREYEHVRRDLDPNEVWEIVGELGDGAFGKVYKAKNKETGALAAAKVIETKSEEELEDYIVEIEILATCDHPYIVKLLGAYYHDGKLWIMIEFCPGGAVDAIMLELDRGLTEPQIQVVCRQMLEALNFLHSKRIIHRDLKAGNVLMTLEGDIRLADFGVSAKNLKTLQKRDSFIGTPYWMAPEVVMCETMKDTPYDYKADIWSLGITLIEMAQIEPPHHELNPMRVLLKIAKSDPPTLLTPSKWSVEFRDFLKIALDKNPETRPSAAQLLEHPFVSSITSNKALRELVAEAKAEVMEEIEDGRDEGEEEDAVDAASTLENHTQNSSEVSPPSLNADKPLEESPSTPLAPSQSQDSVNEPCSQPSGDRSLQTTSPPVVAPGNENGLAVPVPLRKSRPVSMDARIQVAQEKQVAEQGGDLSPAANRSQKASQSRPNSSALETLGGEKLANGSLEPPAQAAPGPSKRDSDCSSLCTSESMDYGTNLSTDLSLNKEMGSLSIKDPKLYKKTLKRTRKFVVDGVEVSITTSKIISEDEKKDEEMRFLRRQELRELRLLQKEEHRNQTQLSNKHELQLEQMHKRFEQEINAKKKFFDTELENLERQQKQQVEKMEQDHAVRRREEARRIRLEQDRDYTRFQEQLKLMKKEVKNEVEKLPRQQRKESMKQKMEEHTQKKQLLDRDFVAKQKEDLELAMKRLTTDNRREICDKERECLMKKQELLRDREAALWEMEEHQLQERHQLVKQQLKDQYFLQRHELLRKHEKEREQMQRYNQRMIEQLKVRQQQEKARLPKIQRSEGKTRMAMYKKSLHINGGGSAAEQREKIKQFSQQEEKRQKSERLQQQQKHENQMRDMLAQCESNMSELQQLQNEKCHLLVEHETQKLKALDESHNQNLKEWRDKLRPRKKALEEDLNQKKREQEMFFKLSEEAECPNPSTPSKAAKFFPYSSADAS
UniProt Q9NP77: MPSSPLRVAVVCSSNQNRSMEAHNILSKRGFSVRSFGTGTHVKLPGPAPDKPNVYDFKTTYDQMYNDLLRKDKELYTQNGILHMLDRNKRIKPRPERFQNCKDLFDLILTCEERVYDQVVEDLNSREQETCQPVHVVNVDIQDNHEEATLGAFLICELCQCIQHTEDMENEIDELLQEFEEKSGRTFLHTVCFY
UniProt Q9UQ35: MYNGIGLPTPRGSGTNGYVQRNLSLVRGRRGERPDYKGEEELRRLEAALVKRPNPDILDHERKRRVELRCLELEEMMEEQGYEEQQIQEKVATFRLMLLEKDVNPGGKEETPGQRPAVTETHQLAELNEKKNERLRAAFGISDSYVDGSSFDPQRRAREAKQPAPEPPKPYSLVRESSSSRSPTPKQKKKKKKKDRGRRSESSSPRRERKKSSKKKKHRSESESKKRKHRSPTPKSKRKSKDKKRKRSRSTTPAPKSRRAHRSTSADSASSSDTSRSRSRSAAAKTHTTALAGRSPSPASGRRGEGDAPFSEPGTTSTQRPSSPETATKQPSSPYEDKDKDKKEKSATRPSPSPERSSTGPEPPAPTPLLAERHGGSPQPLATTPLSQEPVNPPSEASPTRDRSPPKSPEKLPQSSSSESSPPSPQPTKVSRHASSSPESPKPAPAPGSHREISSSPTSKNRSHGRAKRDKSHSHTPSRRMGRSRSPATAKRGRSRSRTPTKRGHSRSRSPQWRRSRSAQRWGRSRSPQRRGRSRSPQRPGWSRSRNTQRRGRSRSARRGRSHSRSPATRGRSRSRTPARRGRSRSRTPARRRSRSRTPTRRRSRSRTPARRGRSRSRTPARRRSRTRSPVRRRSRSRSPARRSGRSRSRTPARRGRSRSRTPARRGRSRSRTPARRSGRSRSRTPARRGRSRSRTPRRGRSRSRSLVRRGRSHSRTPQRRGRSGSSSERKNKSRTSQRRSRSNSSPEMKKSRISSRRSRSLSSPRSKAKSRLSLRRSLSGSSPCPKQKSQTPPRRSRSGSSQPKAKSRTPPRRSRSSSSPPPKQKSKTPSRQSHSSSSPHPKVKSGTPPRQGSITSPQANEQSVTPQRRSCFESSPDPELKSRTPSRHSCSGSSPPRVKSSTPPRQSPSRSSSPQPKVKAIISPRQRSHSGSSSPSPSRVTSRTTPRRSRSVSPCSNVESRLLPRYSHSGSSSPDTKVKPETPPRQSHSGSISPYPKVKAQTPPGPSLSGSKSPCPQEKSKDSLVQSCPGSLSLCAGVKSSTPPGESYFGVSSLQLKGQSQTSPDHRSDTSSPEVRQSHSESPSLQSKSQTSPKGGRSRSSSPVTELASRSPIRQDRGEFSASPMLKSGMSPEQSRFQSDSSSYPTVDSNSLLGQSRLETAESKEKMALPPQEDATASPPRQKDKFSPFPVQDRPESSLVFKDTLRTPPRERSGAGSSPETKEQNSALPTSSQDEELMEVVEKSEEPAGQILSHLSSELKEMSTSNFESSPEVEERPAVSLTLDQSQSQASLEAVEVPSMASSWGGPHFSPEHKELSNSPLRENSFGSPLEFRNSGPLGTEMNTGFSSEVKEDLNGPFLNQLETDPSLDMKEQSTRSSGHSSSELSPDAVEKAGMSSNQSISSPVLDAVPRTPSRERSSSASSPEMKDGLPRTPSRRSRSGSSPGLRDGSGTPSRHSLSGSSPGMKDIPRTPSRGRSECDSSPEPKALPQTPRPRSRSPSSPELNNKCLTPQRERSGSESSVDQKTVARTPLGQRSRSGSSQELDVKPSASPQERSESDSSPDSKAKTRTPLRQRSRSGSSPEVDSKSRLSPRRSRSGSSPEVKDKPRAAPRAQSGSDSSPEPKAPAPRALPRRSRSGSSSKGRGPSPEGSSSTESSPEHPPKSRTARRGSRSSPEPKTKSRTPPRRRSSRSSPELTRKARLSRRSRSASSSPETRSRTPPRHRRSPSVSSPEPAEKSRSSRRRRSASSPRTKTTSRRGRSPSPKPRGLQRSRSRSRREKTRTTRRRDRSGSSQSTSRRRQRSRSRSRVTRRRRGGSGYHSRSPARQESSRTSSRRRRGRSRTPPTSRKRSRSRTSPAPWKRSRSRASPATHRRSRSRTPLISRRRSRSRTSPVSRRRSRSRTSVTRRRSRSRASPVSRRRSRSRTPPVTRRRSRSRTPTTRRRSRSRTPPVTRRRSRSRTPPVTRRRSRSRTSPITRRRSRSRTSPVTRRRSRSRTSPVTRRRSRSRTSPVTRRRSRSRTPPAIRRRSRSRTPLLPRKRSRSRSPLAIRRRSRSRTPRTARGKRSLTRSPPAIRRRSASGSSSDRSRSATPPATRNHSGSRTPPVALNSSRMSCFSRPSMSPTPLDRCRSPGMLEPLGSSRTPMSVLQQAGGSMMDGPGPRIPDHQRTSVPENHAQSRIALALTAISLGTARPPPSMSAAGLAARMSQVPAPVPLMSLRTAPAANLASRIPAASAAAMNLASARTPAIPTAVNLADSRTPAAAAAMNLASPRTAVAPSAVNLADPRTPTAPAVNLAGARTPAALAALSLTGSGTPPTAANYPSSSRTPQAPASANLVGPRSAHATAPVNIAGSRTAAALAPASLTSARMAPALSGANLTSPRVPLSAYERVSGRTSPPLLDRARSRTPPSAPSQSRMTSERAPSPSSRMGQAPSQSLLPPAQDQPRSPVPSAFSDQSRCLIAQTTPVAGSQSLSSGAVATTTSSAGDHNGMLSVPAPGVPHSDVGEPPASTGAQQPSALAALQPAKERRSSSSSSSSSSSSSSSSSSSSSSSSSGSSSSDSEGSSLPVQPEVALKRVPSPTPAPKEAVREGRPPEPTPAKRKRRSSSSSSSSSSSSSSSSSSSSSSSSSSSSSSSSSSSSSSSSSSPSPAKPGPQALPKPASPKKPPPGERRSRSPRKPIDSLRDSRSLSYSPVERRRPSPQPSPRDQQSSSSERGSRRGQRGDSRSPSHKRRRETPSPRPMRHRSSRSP
UniProt Q9Y5M8: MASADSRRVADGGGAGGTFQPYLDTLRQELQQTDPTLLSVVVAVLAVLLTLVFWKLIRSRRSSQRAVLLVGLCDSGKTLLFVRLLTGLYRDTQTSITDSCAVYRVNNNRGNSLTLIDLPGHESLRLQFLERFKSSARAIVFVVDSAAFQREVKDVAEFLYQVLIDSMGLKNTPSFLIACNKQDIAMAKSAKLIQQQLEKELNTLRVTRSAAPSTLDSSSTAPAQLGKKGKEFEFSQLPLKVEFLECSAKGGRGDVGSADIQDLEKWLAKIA
UniProt Q14849, whole entry, looked up: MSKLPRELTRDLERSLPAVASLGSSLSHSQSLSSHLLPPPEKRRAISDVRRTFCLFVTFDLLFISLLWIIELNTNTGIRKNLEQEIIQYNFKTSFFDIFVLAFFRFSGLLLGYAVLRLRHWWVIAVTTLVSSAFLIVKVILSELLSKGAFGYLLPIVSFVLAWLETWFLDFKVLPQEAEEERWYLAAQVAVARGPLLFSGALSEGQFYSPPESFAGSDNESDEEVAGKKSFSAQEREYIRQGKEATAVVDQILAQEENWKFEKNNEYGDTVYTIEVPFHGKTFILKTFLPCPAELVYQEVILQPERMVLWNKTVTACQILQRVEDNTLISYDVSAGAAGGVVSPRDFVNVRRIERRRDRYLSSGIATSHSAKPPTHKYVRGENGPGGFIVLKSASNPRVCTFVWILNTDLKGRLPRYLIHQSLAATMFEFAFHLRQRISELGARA
UniProt Q15022: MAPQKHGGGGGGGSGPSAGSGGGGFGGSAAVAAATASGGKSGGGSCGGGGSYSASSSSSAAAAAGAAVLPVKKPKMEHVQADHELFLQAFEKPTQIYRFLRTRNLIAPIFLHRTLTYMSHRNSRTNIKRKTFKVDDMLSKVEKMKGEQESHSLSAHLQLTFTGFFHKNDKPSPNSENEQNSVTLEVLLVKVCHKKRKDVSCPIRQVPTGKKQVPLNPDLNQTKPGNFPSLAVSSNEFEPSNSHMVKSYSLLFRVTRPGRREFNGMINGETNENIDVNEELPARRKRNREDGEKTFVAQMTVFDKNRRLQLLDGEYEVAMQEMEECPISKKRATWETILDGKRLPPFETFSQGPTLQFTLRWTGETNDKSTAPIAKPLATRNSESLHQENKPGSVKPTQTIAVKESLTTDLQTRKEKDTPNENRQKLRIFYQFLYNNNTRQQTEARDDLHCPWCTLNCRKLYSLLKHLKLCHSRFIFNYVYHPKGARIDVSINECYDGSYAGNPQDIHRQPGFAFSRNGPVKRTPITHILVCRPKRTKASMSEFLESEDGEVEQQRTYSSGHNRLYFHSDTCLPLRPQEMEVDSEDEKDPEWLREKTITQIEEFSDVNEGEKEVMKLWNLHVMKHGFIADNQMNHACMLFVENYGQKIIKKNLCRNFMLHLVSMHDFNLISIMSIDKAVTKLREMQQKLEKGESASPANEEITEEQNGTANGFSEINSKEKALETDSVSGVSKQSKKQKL

Row | Target | probe-labelled cysteine peptide fold change
1 | STAMBP_O95630_390_LTDHGLEEISSCR (UniProt O95630) | 0.235
2 | STK10_O94804_138_GLTEPQIQVVCR (UniProt O94804) | 0.329
3 | SSU72_Q9NP77_192_TFLHTVCFY (UniProt Q9NP77) | 0.0318
4 | SRRM2_Q9UQ35_70_CLELEEMMEEQGYEEQQIQEK (UniProt Q9UQ35) | 0.146
5 | SRPRB_Q9Y5M8_73_AVLLVGLCDSGK (UniProt Q9Y5M8) | 0.426
6 | STARD3_Q14849_317_TVTACQILQR (UniProt Q14849) | -0.0212
7 | SUZ12_Q15022_494_IDVSINECYDGSYAGNPQDIHR (UniProt Q15022) | 0.302
8 | SUPT6H_Q7KZ85_1021_TQLVTMCHMGPK (UniProt Q7KZ85) | 0.105
9 | SYK_P43405_597_MGCPAGCPR (UniProt P43405) | -0.138

From the supplement of paper PMC12067093, “Discovery and optimisation of a covalent ligand for TRIM25 and its application to targeted protein ubiquitination” (Chemical Science, 2025)
